No constants are given. Whether binding was seen depends on the method and setting. Binding seen in cells or lysates may run through a third protein. These calls come from enrichment with a bait or labelling near it, and not all partners need be listed.
Target: NSP5-BioID2
Assay: proximity labelling

B1: VP1 (rotavirus SA11, from infection) (enzyme, UniProt O37061 1-1088)
chain: MGKYNLILSEYLSFIYNSQSAVQIPIYYSSNSELENRCIEFHSKCLENSKNGLSLRKLFVEYNDVIENATLLSILSYSYDKYNAVERKLVKYAKGKPLEADLTVNELDYENNKMTSELFPTAEEYTDSLMDPAILTSLSSNLNAVMFWLEKHENDVAEKLKVYKRRLDLFTIVASTINKYGVPRHNAKYRYEYDVMKDKPYYLVTWANSSIEMLMSVFSHDDYLIAKELIVLSYSNRSTLAKLVSSPMSILVALVDINGTFITNEELELEFSNKYVRAIVPDQTFDELNQMLDNMRKAGLVDIPKMIQDWLVDRSIEKFPLMAKIYSWSFHVGFRKQKMLDAALDQLKTEYTENVDDEMYREYTMLIRDEVVKMLEEPVKHDDHLLRDSELAGLLSMSSASNGESRQLKFGRKTIFSTKKNMHVMDDMANERYTPGIIPPVNVDKPIPLGRRDVPGRRTRIIFILPYEYFIAQHAVVEKMLIYAKHTREYAEFYSQSNQLLSYGDVTRFLSNNTMVLYTDVSQWDSSQHNTQPFRKGIIMGLDILANMTNDAKVLQTLNLYKQTQINLMDSYVQIPDGNVIKKIQYGAVASGEKQTKAANSIANLALIKTVLSRISNKHSFATKIIRVDGDDNYAVLQFNTEVTKQMIQDVSNDVRETYARMNAKVKALVSTVGIEIAKRYIAGGKIFFRAGINLLNNEKRGQSTQWDQAAILYSNYIVNRLRGFETDREFILTKIMQMTSVAITGSLRLFPSERVLTTNSTFKVFDSEDFIIEYGTTVDEVYIQRAFMSLSSQKSGIADEIAASSTFKNYVTRLSEQLLFSKNNIVSRGIALTEKAKLNSYAPISLEKRRAQISALLTMLQKPVTFKSSKITINDILRDIKPFFTVSDAHLPIQYQKFMPTLPDNVQYIIQCIGSRTYQIEDDGSKSAISRLISKYSVYKPSIEELYKVISLHENEIQLYLISLGIPKIDADTYVGSKIYSRDKYRILESYVYNLLSINYGCYQLFDFNSPDLEKLIRIPFKGKIPAVTFILHLYAKLEVINYAIKNGSWISLFCNYPKSEMIKLWKKMWNITSLRSPYTNANFFQE
With B1 the binding was “binds”.
